These are yes or no findings as the source states them, for the method shown. In cells and extracts the contact can be indirect. Some binding calls cover weakened binding; strength is not graded here.
T1: endogenous sortilin of rat prefrontal cortex (rat (endogenous in prefrontal cortex)) (UniProt O54861)
T1 sequence: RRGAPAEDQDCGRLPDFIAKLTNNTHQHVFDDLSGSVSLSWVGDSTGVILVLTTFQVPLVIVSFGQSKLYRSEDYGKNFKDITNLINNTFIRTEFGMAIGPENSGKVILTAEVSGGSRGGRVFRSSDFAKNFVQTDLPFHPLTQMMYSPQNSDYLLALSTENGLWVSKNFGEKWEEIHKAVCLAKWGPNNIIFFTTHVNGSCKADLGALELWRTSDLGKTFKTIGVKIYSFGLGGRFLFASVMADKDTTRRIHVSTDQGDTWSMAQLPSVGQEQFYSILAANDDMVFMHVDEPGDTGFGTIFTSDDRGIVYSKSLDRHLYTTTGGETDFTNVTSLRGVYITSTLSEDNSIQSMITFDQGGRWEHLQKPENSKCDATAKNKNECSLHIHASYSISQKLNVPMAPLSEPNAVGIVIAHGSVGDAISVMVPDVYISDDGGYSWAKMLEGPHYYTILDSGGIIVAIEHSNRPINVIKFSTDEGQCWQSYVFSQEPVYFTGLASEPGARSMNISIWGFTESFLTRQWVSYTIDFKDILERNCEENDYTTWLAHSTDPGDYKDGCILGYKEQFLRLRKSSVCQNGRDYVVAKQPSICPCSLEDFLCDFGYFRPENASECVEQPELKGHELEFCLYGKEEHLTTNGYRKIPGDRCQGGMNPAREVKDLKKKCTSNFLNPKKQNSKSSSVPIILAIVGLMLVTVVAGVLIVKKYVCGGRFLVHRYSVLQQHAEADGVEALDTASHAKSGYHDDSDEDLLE


Molecular target: T1, endogenous sortilin of rat prefrontal cortex (rat (endogenous in prefrontal cortex))
Test: co-IP; endogenous proteins, rat (10 weeks) prefrontal cortex lysate in 50 mM Tris-HCl pH 7.4, 150 mM NaCl, 5 mM CHAPS; IP with anti-sortilin or control IgG; Western blot

binding | Binder
binds | endogenous NSG1 of rat prefrontal cortex (protein, UniProt P02683 1-185) MVKLGNNFAEKGTKQPLLEDGFDTIPLMTPLDVNQLQFPPPDKVVVKTKTEYEPDRKKGKARPPKIAEFTVSITEGVTERFKVSVLVLFALAFLTCVVFLVVYKVYKYDRACPDGFVLKNTQCIPEGLESYYTEQDSSAREKFYTVINHYNLAKQSITRSVSPWMSVLSEEKLSEQETEAAEKSA
binds | endogenous NSG2 of rat prefrontal cortex (protein, UniProt Q3KR51 1-171) MVKLNGNPGEKGAKPPSVEDGFQTVPLITPLEVNHLQLSAPEKVIVKTRTEYQPEQRNKGKFRVPKIAEFTVTILVSLALAFLACIVFLVVYKAFTYDHSCPEGFVYKHKRCIPASLDAYYSSQDPSSRSRFYTVISHYSVAKQSTARAIGPWLSAAAVIHEPKPPKTQGH

— publication PMC10704435
